Out of some 130,000 compounds screened, about 1,000 (0.77%) were called active. Inconclusive means that the source gave no clear call. Such entries were picked first, then a sample of the others.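 Rule for the calls: active = activation at 2 µM above a set limit, confirmed on inspection of the cell images; inconclusive = above the set limit but not confirmed on image inspection; inactive = the rest.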
Experiment: activators of insulin promoter-driven GFP, primary screen, imaging, TRM-6 cells (human fetal islet line), eGFP reporter, cell count (AID 1296;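 note: share of cells whose green reporter signal exceeds an intensity cutoff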)
Details: at 2 µM, hits give high values, plate-scaled: unstimulated 0, stimulated control 100
How it was run: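 Test system: TRM-6 insulin promoter–eGFP reporter cells / Quantity: 1,000 cells per well / Reagent: tamoxifen inducer, 0.75 µM, in seeding medium / Compound dosing: 2 µM final, single concentration / Schedule: overnight tamoxifen, then two-day compound incubation at 37 °C / Measured by: automated fluorescence imaging of paraformaldehyde-fixed, Hoechst-counterstained cells, green channel / Read-out: percent activation from GFP-positive cell fraction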

| SMILES | activation |
| --- | --- |
| Cc1cc(C)nc(SCC(=O)OCC(=O)Nc2nc3ccccc3s2)n1 | inactive: 6.67% |
| CC1=C(C(=O)OCCc2ccccc2)C(c2ccsc2)NC(=O)N1C (configuration not stated) | inconclusive: 254% |
| NC(=O)[C@@H]1CCCNc2c(I)cc([N+](=O)[O-])cc2C(=O)N[C@@H](Cc2ccccc2)C(=O)N[C@@H](Cc2cnc[nH]2)C(=O)N1 | active: 285% |
| O=C(COC(=O)c1ccccc1NS(=O)(=O)c1cc([N+](=O)[O-])ccc1Cl)c1ccccc1 | inconclusive: 76.5% |
| Cc1ccccc1CSCC(=O)N1CCN(c2ccccc2)CC1 | inconclusive: 233% [cytotoxic] |
| CCOC(=O)CCSc1nc(C)c2cc(C)ccc2n1 | inconclusive: 96.7% |
| OC(CSc1ccc(F)cc1)CN1CCN(c2ccccc2)CC1 (configuration not stated) | active: 118% |
| O=C(NCC1CCCO1)C(c1cccs1)N(C(=O)Cn1nnc(-c2cccs2)n1)C1CCCC1 (configuration not stated) | inconclusive: 440% |
| COc1ccc(N2CCN(C(=O)CN(c3ccccc3)S(=O)(=O)c3ccc(OC)cc3)CC2)cc1 | active: 80% |
| O=C(OCc1nc2ccccc2s1)c1ccco1 | inconclusive: 654% [cytotoxic] |
| CCN1CCN(Cc2ccccc2NC(=O)Nc2ccc(C)cc2)CC1 | inconclusive: 536% |
| Cc1ccc(NC(=O)CN(C)C(=O)Cn2ncc(Cl)c(Cl)c2=O)cc1 | inconclusive: 212% [cytotoxic] |
| CCOc1ccc(CCNC(=O)C(CCC(N)=O)NC(=O)OCc2ccccc2)cc1OCC (configuration not stated) | active: 229% |
| CCc1nnc(NS(=O)(=O)c2ccc(N=Cc3c(C)[nH]n(-c4ccc(C)c(C)c4)c3=O)cc2)s1 | inconclusive: 200% |
| Cc1c(-c2n[nH]c(=S)n2-c2ccc(Br)cc2)nnn1-c1ccc(Cl)cc1 | inconclusive: 94.1% |
| CCCCOc1ccc(S(=O)(=O)N2CCCCCC2)cc1 | inconclusive: 150% |
| COc1ccc(C(=O)CSc2nccc(=O)[nH]2)cc1 | inconclusive: 424% |
| CCc1nnc(N2C(=O)c3cccc4cccc(c34)C2=O)s1 | inconclusive: 420% |
| Cc1ccc(Nc2nc(C)cc(C)c2C(N)=O)cc1 | inconclusive: 577% |

| SMILES | activation |
| --- | --- |
| Cn1cccc1C(=O)OCC(=O)c1cc2ccccc2o1 | active: 185% |
| O=C(Cc1ccccc1)Nc1cccc(N2C(=O)C=CC2=O)c1 | inconclusive: 733% [cytotoxic] |
| CCCn1c(CCc2ccccc2)nnc1SCC(=O)N1CCCC1 | inconclusive: 427% |
| O=c1cc(-c2ccccc2)nc(N2CCN(Cc3ccc4c(c3)OCO4)CC2)[nH]1 | active: 730% |
| Cc1ccc(N2C(=O)c3ccc(C(=O)O)cc3C2=O)c(C)c1 | inactive: 6.67% |
| O=C1c2ccccc2-c2onc3ccc(NCc4ccco4)c1c23 | inconclusive: 335% |
| Cc1c(NC(=O)COC(=O)CCC(=O)c2ccc(Cl)cc2)c(=O)n(-c2ccccc2)n1C | inactive: 8.33% |
| C=CCOn1c(=O)c(-c2ccccc2)[n+]([O-])c2ccccc21 | inconclusive: 88.2% |
| Cn1c(=O)c(NC2CCCCC2)c2c3c(cccc31)C(=O)c1ccccc1-2 | active: 567% |
| CCOC(=O)COc1c(/C=N\OC)cc(Cl)cc1OC | inactive: 136% |
| OC1C2CN3CCN(C2)CC1(Cc1ccccc1)C3 (configuration not stated) | inconclusive: 486% |
| O=C1c2cccc3cccc(c23)C(=O)N1c1ccc2ncccc2c1 | inconclusive: 454% |
| CC1CCCCC1NC(=O)C(=O)NCC1CCCO1 (configuration not stated) | inconclusive: 500% |
| CC(Sc1nnc(Cc2cccs2)n1C1CCCCC1)C(=O)N1CCc2ccccc21 (configuration not stated) | inconclusive: 608% |
| CC(C)C(NS(=O)(=O)c1cccs1)C(=O)NCc1ccc2c(c1)OCO2 (configuration not stated) | active: 162% |
| COc1ccc(CSc2nc(C)cc(=O)[nH]2)cc1Br | inconclusive: 354% [cytotoxic] |
| CCOC(=O)C(C)Sc1ncnc2nc[nH]c12 (configuration not stated) | active: 513% |
| CCCCc1ccc(NC(=O)COc2ccc(C(=O)Nc3ccccc3OCC)cc2)cc1 | inactive: -7.69% |
| CCOc1cccc(C(=O)N2CCCCC2c2cccnc2)c1 (configuration not stated) | active: 164% |

Quoted from the listing:
Entry for Cn1cccc1C(=O)OCC(=O)c1cc2ccccc2o1 under activation: active: 185%
Entry for OC1C2CN3CCN(C2)CC1(Cc1ccccc1)C3 (configuration not stated) under activation: inconclusive: 486%

Next part

| SMILES | activation |
| --- | --- |
| CC(C)N1CCc2c(sc(NC(=S)NC(=O)c3ccccc3)c2C#N)C1 | inconclusive: 210% |
| Clc1ccccc1Nc1nc(-c2cccnc2)cs1 | active: 358% |
| C=COCCNC(=S)N1CCOCCOCCN(C(=S)NCCOC=C)CCOCC1 | inconclusive: 200% |
| COc1ccc(N2CCN(c3ccc(NC(=O)C4CCCCC4)cc3C#N)CC2)cc1 | inconclusive: 490% |
| CCOC(=O)c1nnn(CC(=O)N2N=C(c3ccc(Cl)cc3)CC2c2ccc(OC)cc2)c1C(=O)OCC (configuration not stated) | inconclusive: 600% |
| CCOC(=O)/C(C(N)=NC)=C(\O)c1ccccc1 | inactive: 374% |
| CCOC(=O)C1CCN(C(=O)C2CCCCC2)CC1 | active: 562% |
| COc1ccc(Br)cc1CNC(=O)C1CCN(S(=O)(=O)N2CCCCC2)CC1 | active: 169% |
| OCCCNC(=S)NC1CCCC1 | inconclusive: 471% [cytotoxic] |
| CCc1ccc(C(=O)/C=C/c2ccc([N+](=O)[O-])o2)cc1 | inconclusive: 160% |
| N#Cc1c(-c2ccccc2)nc(SCc2nc(N)nc(N3CCCCC3)n2)[nH]c1=O | inconclusive: 600% |
| Cc1ccc(NC(=O)Cc2nnc(SCC(=O)c3ccc(Br)cc3)n2C)cc1Cl | inactive: 8.33% |
| CC(=O)c1ccc2cccc3c2c1N=CN3C | active: 130% |
| CC(C)OC(=O)C1CC(C)(O)C(=O)C(C(=O)OC(C)C)C1c1ccc([N+](=O)[O-])cc1 (configuration not stated) | inconclusive: 118% |
| Cc1cc(C)c(S(=O)(=O)N2CCOC2CNC(=O)C(=O)NCCc2c[nH]c3ccccc23)c(C)c1 (configuration not stated) | active: 310% |
| CCNc1c2c3c(cccc3n(C)c1=O)C(=O)c1ccccc1-2 | inconclusive: 171% |
| CCn1ccnc1C(O)c1ccccc1OC (configuration not stated) | inactive: -9.52% |
| CCOC(=O)CN1C=C(c2ccc3ccccc3n2)C(C[N+](=O)[O-])c2ccccc21 (configuration not stated) | inconclusive: 136% |
| Cc1cccc(NC(=O)CCS(=O)(=O)c2cccc3nsnc23)c1C | inconclusive: 97.4% |
